Results from article PMC11797554, “Chemical genetics reveals cross-regulation of plant developmental signaling by the immune peptide-receptor pathway” (Science Advances, 2024).
Results are given in words; binding and its absence hold for the method and conditions named. In cells and extracts the contact can be indirect. Some entries that bind do so weakly or less than the wild type. Sequences can lack the tags named with a protein.

Chains of the proteins cited; added tags and fusions are not shown.
UniProt Q39026: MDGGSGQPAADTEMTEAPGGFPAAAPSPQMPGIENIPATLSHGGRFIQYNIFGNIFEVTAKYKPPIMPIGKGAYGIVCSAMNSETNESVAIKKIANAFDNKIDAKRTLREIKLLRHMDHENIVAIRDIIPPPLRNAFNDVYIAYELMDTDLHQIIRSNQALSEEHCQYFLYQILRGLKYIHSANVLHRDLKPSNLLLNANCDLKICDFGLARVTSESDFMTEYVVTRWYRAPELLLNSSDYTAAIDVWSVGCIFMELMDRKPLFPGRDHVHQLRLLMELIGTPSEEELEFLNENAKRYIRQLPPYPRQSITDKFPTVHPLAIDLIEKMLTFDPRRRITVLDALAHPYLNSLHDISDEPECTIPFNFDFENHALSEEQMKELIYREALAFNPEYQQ

Target: T1, SCRM-nYFP (Arabidopsis) (UniProt Q9LSE2)
T1 sequence: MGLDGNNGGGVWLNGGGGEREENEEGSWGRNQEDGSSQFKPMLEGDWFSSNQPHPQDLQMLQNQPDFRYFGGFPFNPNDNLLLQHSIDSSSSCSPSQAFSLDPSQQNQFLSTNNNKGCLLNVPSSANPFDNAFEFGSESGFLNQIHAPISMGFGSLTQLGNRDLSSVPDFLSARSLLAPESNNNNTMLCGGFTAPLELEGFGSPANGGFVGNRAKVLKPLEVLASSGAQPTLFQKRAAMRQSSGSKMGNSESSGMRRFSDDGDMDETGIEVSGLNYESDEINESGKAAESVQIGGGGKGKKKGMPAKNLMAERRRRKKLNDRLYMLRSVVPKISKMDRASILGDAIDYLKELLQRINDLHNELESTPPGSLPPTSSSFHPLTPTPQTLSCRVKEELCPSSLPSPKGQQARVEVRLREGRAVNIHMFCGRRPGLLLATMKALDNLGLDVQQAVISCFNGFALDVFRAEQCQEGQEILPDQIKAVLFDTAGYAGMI
Assay: split reporter; ratiometric BiFC (2in1 system, pBiFCt-2in1-CC) in N. benthamiana leaf epidermis; MPK6-cYFP and SCRM-nYFP with 35S::RFP on one plasmid; YFP/RFP ratio in nuclei; mock or 100 μM kC9, 2 days

binding: binds
Substance: MPK6-cYFP (from UniProt Q39026 1-395) (enzyme)
